Results on one molecule are retold here after publication PMC6570650.

No constants are given. Whether binding was seen depends on the method and setting. Some entries that bind do so weakly or less than the wild type.

Assay [1] has as its target T1, rpoB, core β subunit of the plastid-encoded RNA polymerase (PEP) (Arabidopsis thaliana (endogenous in seedlings)) (UniProt P50546).
T1 sequence: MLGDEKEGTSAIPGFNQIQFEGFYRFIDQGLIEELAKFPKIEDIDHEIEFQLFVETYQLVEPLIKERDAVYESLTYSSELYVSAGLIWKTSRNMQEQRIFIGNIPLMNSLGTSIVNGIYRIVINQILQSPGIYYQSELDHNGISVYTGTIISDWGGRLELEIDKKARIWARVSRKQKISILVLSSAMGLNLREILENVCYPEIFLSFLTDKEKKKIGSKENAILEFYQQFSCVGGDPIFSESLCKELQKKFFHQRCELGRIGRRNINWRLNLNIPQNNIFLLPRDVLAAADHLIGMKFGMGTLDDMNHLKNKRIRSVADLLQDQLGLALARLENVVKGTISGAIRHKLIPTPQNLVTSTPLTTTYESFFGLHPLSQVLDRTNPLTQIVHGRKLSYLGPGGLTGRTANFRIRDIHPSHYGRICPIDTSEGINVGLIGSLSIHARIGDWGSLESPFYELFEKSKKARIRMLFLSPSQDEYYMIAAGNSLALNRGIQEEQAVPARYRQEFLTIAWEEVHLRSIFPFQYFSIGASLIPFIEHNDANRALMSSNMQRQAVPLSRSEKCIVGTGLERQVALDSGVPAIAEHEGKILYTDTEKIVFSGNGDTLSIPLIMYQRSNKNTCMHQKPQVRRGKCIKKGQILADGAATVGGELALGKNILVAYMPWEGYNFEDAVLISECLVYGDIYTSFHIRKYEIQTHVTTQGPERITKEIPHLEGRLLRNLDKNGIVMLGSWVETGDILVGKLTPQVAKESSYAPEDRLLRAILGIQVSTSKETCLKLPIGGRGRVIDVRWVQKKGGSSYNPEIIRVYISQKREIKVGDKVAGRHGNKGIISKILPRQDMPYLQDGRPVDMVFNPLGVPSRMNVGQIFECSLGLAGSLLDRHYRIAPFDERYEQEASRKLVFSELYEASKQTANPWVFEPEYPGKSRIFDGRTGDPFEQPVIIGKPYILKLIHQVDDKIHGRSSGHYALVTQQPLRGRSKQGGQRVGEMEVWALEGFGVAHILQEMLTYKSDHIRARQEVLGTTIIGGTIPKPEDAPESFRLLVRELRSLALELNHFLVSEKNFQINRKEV
Kind of assay: native gel or EMSA; blue-native PAGE and immunoblots with anti-rpoB and anti-HMR; Col-0 seedlings grown in darkness.

In assay [2] the target is T1, rpoB, core β subunit of the plastid-encoded RNA polymerase (PEP) (Arabidopsis thaliana (endogenous in seedlings)). Description: native gel or EMSA; blue-native PAGE (4-16%) of native extracts of 4-d-old Col-0 seedlings grown in 10 μmol m^-2 s^-1 R light, treated with 1% n-dodecyl β-D-maltoside and Benzonase; immunoblots with anti-rpoB and anti-HMR.
For assay [3] the target is unchanged. Kind of assay: condition: only in phyA-211/phyB-9 and phyABCDE mutant seedlings; native gel or EMSA; blue-native PAGE and immunoblots with anti-rpoB and anti-HMR; phyA-211/phyB-9 and phyABCDE mutant seedlings grown in R light.
Assay [4] shares this target. Description: condition: only in rcb-1/PBG, rcb-2/PBG and rcb-10 mutant seedlings; native gel or EMSA; blue-native PAGE and immunoblots with anti-rpoB and anti-HMR; rcb-1/PBG, rcb-2/PBG and rcb-10 mutant seedlings grown in 10 μmol m^-2 s^-1 R light.

B1: HEMERA (HMR)/pTAC12, PEP-associated protein (protein, UniProt F4IHY7 31-527)
chain: VKCGFPLKTLHAGITSRDRSLRHCIKCKKEDGDGDVSEGSKKSEEGFEYVTVERHPYHSYMDSTSGKLEPASGARASIPGEDYWPEGTSSRVRAARAPQPAGESSSFPSYGKNPGSRRKKNRKATEENVTVETNDEVSDSEDSSEEEENDSSDGFVTYKNEFEREEEETGFELDKKLGRPHPFIDPTKKKQIEKTLTSDESWWNWRKPEKEQWSRWQRRRPDVETVFLKAMAETGQVKLYGEEPTLTETSLYRARRHLFKEERLQAERERLAKEGPMAFYSEWVKAWKRDTSREAVQKHFEETGEDENTQLIEMFSHQTDREYRIMMGTDIRIKRDPLAMRMREDQIKQIWGGDPVYPTINYIQDPNAVMDFRGPDFHEPTPNMLSYLKENGKVISREMHEALLTKEKTEQLEVPDMDDAMAQAVDIGENDDDEDDADVEKDDEKVPRNWSVLKETPELRTAKPKPKKEGRMSLDEAVDDAENLTDFLMDFEEETDP
B1: the binding entry in assay [1] is reported as “no binding (condition: seedlings grown in the dark)”; in assay [2], “binds”; in assay [3], “no binding”; in assay [4] it was “no binding”.
